Laboratory results published in patent US20080070987A1, “META-XYLYLENEDIAMINE VANADATE SALTS” (priority 2006, published 2008).
At least one compound was matched to its structure with a doubt left.

System: isolated rat adipocytes
Test: Glucose (2-deoxyglucose) transport in isolated rat adipocytes
Assay type: cell-based, Wistar rats
Conditions: B6V10 25 μM, 45 min; wortmannin 2 μM or LY294002 10 μM
Method: FIG. 1 is a graphical illustration of the hexaquis(benzylammonium) decavanadate effects on glucose transport in isolated rat adipocytes. In this Figure, V corresponds to the rate of 2-deoxyglucose transport (expressed relative to the basal rate), and the results are mean +standard error of the mean (SEM). The adipocytes were incubated in the absence of stimulants in the following conditions: basal (1); in the presence of 100 nM insulin (2); in the presence of hexaquis(benzylammonium) decavanadate at concentrations of 0.5 μM (3), 1 μM (4), 2.5 μM (5), 5 μM (6), 10 μM (7), 25 μM (8), 50 μM (9), and 100 μM (10). […]
FIG. 2 is a graphical illustration of the effects of hexaquis(benzylammonium) decavanadate, pentaquis(benzylammonium) decavanadate and tetraquis(benzylammonium) decavanadate on glucose transport in isolated rat adipocytes. V corresponds to the rate of 2-deoxyglucose uptake (expressed as relation with basal group), and the results are mean +standard error mean. […]
Adipose cells from Wistar rats were incubated for 45 minutes in basal conditions (Basal) or in the presence of 100 nM insulin (Ins) and different concentrations of. hexaquis(benzylammonium) decavanadate (B6V10) in the absence or in the presence of 1 mM semicarbazide (SCZ). Subsequently, 2-DG transport was measured over a 5 min. interval. […]

## O=c1cc(N2CCOCC2)oc2c(-c3ccccc3)cccc12 [LY294002, reference compound]
  effect of phosphatidylinositol 3-kinase inhibitor on B6V10-induced glucose transport: blocked

## COC[C@H]1OC(=O)c2coc3c2[C@@]1(C)C1=C(C3=O)[C@@H]2CCC(=O)[C@@]2(C)C[C@H]1OC(C)=O [wortmannin, reference compound]
  effect of phosphatidylinositol 3-kinase inhibitor on B6V10-induced glucose transport: blocked
